# The supplement of paper PMC10338343
# ± gives the standard deviation. Only a part is listed here, and it is no random draw. The uncertainty is large for many entries.
# Test system: MIWI (PIWIL1) piRISC loaded with Kctd7 piRNA (30 nt)
# Assay: pre-steady-state target cleavage rate (min^-1); MIWI and MILI are mouse PIWI proteins and EfPiwi is from a freshwater sponge; tags in brackets are library labels; higher = faster piRNA-guided slicing of the target
# Conditions: guide: Kctd7 piRNA 5'p-UGUUAAUCUCUCAGAGAAGGUGACAGUGAU; auxiliary factor: 500 nM mouse GTSF1
# Experimental: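 Cleave-'n-Seq: a library of target RNAs (target site embedded in constant flanks, ACAGCATTCCGCGTTAGTGATATCCG... 5' flank; DNA-blocked outside the site) at 0.1 nM was incubated with 1 nM active mouse MILI or MIWI piRISC (synthetic 5'-monophosphorylated piRNA guide) with or without 500 nM mouse GTSF1 at 33 °C for 1 min to 16 h. Uncleaved targets were sequenced and normalised to non-target controls, and the pooled three trials were fitted to a burst-and-steady-state model to give the pre-steady-state cleavage rate (min^-1; k3 is constrained to at most 1e-4). Sequence is the target site only; target names encode pairing extent (gX:gY) and contiguous / 1-mismatch / 2-mismatch / bulge geometry. Fits with R² ≤ 0 are excluded.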
row,Sequence,pre-steady-state target cleavage rate
1,UAGUGACACACCUUCUCUGAGACAUUAUCA,0.00257 ± 0.0035
2,UAGAGUGUCACCUUCUCUGAGAGAUUAACA,0.72 ± 0.035
3,UAGACUGUCACCUUCUCUCUCAGAUUAACA,0.000632 ± 0.0055
4,UACACUGUGUGCUUCUCUGAGAGAUUAUGA,0.000632 ± 0.01
5,UAGUGACAGUGCUGCUCUGAGAGAUUAACA,0.00147 ± 0.0029
6,UAGUGACAGACCUUCUCUGACUGAUUAACA,0.000555 ± 0.012
7,UAGUGACUCACCCUCUCUGAGAGAUUAACA,0.415 ± 0.045
8,UAGUGACUCACCUUCUCUGAGAGAUUAACC [g2:g23:cont:t1C],0.303 ± 0.032
9,UAGUGACAGUGCUUGUCUGAGAGAUAAACA,0.00155 ± 0.0059
10,UACACUGUCACCUUCUCACUGAGAUUAUGA,0.00129 ± 0.012
11,UAGUGACAGUGCUUCUCUUGAGAGAUUAACA,0.000327 ± 0.019
12,UAGUGACAGACCUUCUCUGAGACUUUAUGA,0.000476 ± 0.015
13,UAGUGACAGUCCUACUCUGAGAGAUAAACA,0.00262 ± 0.0029
14,UAGUGUGUCACCUUCUCUGUCUCUAAUUGA [g12:g25:cont:t1A],0.00217 ± 0.006
15,UAGUGACAGACCUUGUCUGAGAGAUUUUGA,0.000909 ± 0.01
16,UAGUGUGUCACCUUCUCUGUCAGAUUAAGA,0.000257 ± 0.03
17,UAGUGACAGACCUUCUCAGACAGAUUAACA,0.00229 ± 0.0059
18,UUCACUGUCACCAUCUCUGAGAGAUUAACA,0.738 ± 0.029
19,UAGUGACACACCUUCUCUCAGAGAAUAACA,0.00392 ± 0.004
20,UAGUGACAGUGCUUGUCUGAGAGAUUAUCA,0.00134 ± 0.0078
21,AUCACUGUCACCUUCUCACUGAGAUUUUGA,0.00308 ± 0.0052
22,UAGUGACAGAGGUUCUCUGAGAGAUUAACA,0.000644 ± 0.0053
23,UAGUGACAGUGCAUCUCUCAGAGAUUAACA,0.000646 ± 0.011
24,UAGUGACAGUGCAUCUCUGAGAGUUUAACA,0.00137 ± 0.0049

row,Sequence,pre-steady-state target cleavage rate
1,UACACUGUCACCUUCUGACAGAGAUUAUGA,0.00107 ± 0.0092
2,UAGACUGUCACCUUCUCUGUGAGAUUUUGA,0.0048 ± 0.0033
3,UAGUGUGAGUCCUUCUCUGAGAGAUUUUGA,0.00289 ± 0.0033
4,UAGUGACACACCUUCUCUGACAGAUUAUGA,0.000848 ± 0.0093
5,UAGACUGAGUCCUUCUCUGAGAGAUAUUGA,0.000514 ± 0.0097
6,UAGUGAGUCACCUUCUCUGACUGAUUUUGA,0.000797 ± 0.0099
7,UUCACUGUCACCUUCUCUGAAGAGAUUAACA,0.019 ± 0.0081
8,UAGUGACAGACCUUCUCUGAGAGUAUAUGA,0.000876 ± 0.0081
9,UAGUGACAGACCUACUCUGAGUGAUUAACA,0.00345 ± 0.004
10,UAGUGUGUCACGAACUCUGAGAGAUUUUGA,0.000136 ± 0.036
11,AUCACUGUCUGCUUCUCUGAGAGAUUAACA,0.74 ± 0.042
12,UACACUGUGUGCUUCUCUGAGAGAUAUUGA,0.000181 ± 0.027
13,UAGUGACAGUGGAAGACUGAGUCAUUAACA,0.000193 ± 0.016
14,UACACUGUCACCUUGAGUGAGAGAUUAACA,0.0042 ± 0.0057
15,UAGUGACACACCUUCUCACAGAGAUUUUGA,0.000673 ± 0.015
16,UAGUGACAGUGGAAGAGACUCAGAUUAACC [g2:g9:cont:t1C],0.000695 ± 0.0077
17,UAGUGACUCACCUUCUCUCUGAGAUUUUGA,0.000489 ± 0.018
18,UAGUGACACAGGAUCUCUGAGAGAUUAAGA,0.000169 ± 0.027
19,UAGUGACAGACCUACUCUCAGAGAUUAACA,0.0013 ± 0.0089
20,UAGUCUGUCACCUUCUCUGUCUGAUUAAGA,0.00385 ± 0.0059
21,UAGUGACUCACCUUCUCUGAGAGAAAUAGA,0.00273 ± 0.004
22,UAGUGACAGUGGAAGAGACACUCAUUAACA,0.000186 ± 0.017
23,UAGACUGUCACCUUCUCUGAGACAUAUUGA,0.000412 ± 0.0095
24,UAGUGACAGUGGAAGAGAGAAGAUUAACA,0.000145 ± 0.026

# Shown with bars between the fields: part of the list above
row | Sequence | pre-steady-state target cleavage rate
1 | UACACUGUCACCUUCUGACAGAGAUUAUGA | 0.00107 ± 0.0092
14 | UACACUGUCACCUUGAGUGAGAGAUUAACA | 0.0042 ± 0.0057
19 | UAGUGACAGACCUACUCUCAGAGAUUAACA | 0.0013 ± 0.0089

# Later entries:

row,Sequence,pre-steady-state target cleavage rate
1,UAGUGACAGACCUUGUCUGAGAGAAUAACA,0.00181 ± 0.0057
2,UAGUGACAGUGCUUCUGUGAGAGAUUUACA,0.00329 ± 0.0039
3,UUCACUAGUCACCUUCUCUGAGAGAUUAACA,0.708 ± 0.032
4,UAGAGUGUCACCUUCUCUGAGAGAUAAACA,0.362 ± 0.038
5,UAGUGACACACCUUGACUGAGAGAUUAUGA,0.000605 ± 0.018
6,UAGACUGUCACCUUCUCUCUGAGAUUAUGA,0.00052 ± 0.012
7,UAGUCUGUCUCCUUCUGUGAGAGAUUAACA,0.536 ± 0.028
8,UAGUGACAGACCUUCUCUGAGUGAAUAACA,0.0014 ± 0.0076
9,UACACUGUCACCUUCUCUGACUCAUUAUGA,0.0018 ± 0.0039
10,UAGACAGUCACCAUCUCUGAGAGAUUAACA,0.68 ± 0.042
11,UAGUGUGUCACCUUCUGAGAGAGAUAUUGA,0.00238 ± 0.0074
12,UACACUGUCACCUUCUCUGUCAGAUUAUGA,0.00355 ± 0.0078
13,UAGUGACAGUGCUUCUCUGAGAGUUUAACA,0.00896 ± 0.0024
14,UAGACUGUCACCAUCUCUGAGAGAUUAACA,0.741 ± 0.052
15,UAGUCUGUCACCUUCUCACAGAGAUUUUGA,0.003 ± 0.0049
16,UAGUGACAGACCUUCUCUGACAGAUUAAGA,0.00115 ± 0.0075
17,UAGUGACAGACCUUCUCUGACGAGAUUAACA,0.00201 ± 0.0044
18,UAGUGACAGACCAUCUCUCAGAGAUUAACA,0.00139 ± 0.0074
19,UACACUGACACCUUCUCUGAGAGAUUUUGA,0.0697 ± 0.019
20,UAGUGACAGUCCUUCUGCUGAGAGAUUAACA,0.000385 ± 0.017
21,UAGUCUGUCACCUUCUCUGACUGAUAUUGA,0.000857 ± 0.008
22,UAGUGACAGUGCUUCUCUGUGAGUUUAACA,0.00115 ± 0.0062
23,UAGUGACAGUCCUUCUCUAGAGAGAUUAACA,0.000681 ± 0.011
24,UAGUGACUCACCUUCUCUGACUGAUUAAGA,0.000142 ± 0.028
